Results from cells or extracts need not show a direct contact.
Target: CCR7 (UniProt P32248)
Assay: flow cytometry
Settings: dose-dependent, protein on the cell surface

Sequences of proteins named here, by UniProt entry; tags and fusion partners are left off. Residues count along the entry.
UniProt P32248, 25-378: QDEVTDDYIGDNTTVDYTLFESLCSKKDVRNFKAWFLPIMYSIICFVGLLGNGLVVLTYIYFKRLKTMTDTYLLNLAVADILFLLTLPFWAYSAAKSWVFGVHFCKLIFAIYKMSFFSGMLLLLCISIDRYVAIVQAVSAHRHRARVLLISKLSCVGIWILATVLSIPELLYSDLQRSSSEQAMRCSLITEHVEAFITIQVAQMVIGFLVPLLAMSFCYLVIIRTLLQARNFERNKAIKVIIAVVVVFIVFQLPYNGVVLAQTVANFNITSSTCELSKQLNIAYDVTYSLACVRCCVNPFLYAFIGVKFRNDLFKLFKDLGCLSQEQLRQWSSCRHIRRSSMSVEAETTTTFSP

Sequence	binding result (highest affinity of the aptamers tested)	binding result
GGGAGGACGAUGCGGUUUCGUCCUGAGUUCGUGUCCUCGUCUGUGCAGACGACUCGCCCGA [C-1A]	binds	–
GGGAGGACGAUGCGGAAUUCGUCAAAGUCGUUUAUUUCGUCUGUGCAGACGACUCGCCCGA [C-2A]	–	binds
